Data as given in PubChem BioAssay AID743121 (NCATS, 2013).

Screen: 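Knock-downs that sensitise breast cancer cells to camptothecin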 (primary screen)
Cell system: MDA-MB-231 cells, a human breast cancer line
Knock-down reagent: single siRNA against human genes, 20 nM siRNA (0.8 pmol per well)
Timing: 120 h (drug added 48 h after transfection, read 72 h later)
Conditions: camptothecin 20 nM (about EC30) for 72 h; vehicle 0.1% DMSO in parallel plates
Measurement: 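Cell viability by ATP luminescence (CellTiter-Glo) as % of non-targeting siRNA wells, and the log2 ratio of viability without drug over viability with camptothecin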
Reading the numbers: log2 vehicle/camptothecin viability: higher = stronger sensitisation to camptothecin
Active means: 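Active genes have an RSA gene-level p-value below 0.001, computed from the ratios of their separate siRNAs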
The whole screen tested about 26,000 reagents; this is a part drawn at random. 167 of all reagents (0.63%) were called active. 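Calls are per gene from RSA p-values that are not deposited; an individual active-marked siRNA can sensitise only weakly.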 Unmarked entries are inactive. Reagents against one gene are numbered here. Not all columns of the deposit are shown.

Depletion of KCNIP3 #1 resulted in: log2 vehicle/camptothecin viability -0.324. KCNIP3 #2 showed log2 vehicle/camptothecin viability -0.314. KCNIP3 #3 showed log2 vehicle/camptothecin viability 0.35. After knock-down of KCNIP3 #4 the results were log2 vehicle/camptothecin viability 0.0206. With knock-down of SRP9 #1, the record shows log2 vehicle/camptothecin viability -0.131. With knock-down of SRP9 #2 the results were log2 vehicle/camptothecin viability -0.281.

SRP9 #3 scored log2 vehicle/camptothecin viability -0.153. After knock-down of SRP9 #4 the results were log2 vehicle/camptothecin viability -0.0304. For TBC1D1 #1, the values are log2 vehicle/camptothecin viability -0.09. TBC1D1 #2 scored log2 vehicle/camptothecin viability -0.299. Depletion of TBC1D1 #3 resulted in: log2 vehicle/camptothecin viability 0.281. TBC1D1 #4 scored log2 vehicle/camptothecin viability 0.0244.

NEUROD4 #1 scored log2 vehicle/camptothecin viability -0.361. Silencing of NEUROD4 #2 gave: log2 vehicle/camptothecin viability -0.195. With knock-down of NEUROD4 #3 the results were log2 vehicle/camptothecin viability -0.265. NEUROD4 #4 gave log2 vehicle/camptothecin viability -0.228. With knock-down of RP2 #1, the record shows log2 vehicle/camptothecin viability -0.222. Against RP2 #2, the values are log2 vehicle/camptothecin viability 0.256.

RP2 #3 gave log2 vehicle/camptothecin viability -0.0135. Against ERCC5 #1, the entry reads log2 vehicle/camptothecin viability 0.0231. After knock-down of ERCC5 #2, the screen gave log2 vehicle/camptothecin viability -0.422. Silencing of ERCC5 #3 gave: log2 vehicle/camptothecin viability -0.00646. Silencing of ERCC5 #4 came out at: log2 vehicle/camptothecin viability -0.0587. PPP1R16B #1 scored log2 vehicle/camptothecin viability 0.92 (active).

PPP1R16B #2 scored log2 vehicle/camptothecin viability 0.452 (active). Depletion of PPP1R16B #3 resulted in: log2 vehicle/camptothecin viability -0.152 (active). Against PPP1R16B #4, the entry reads log2 vehicle/camptothecin viability 0.664 (active). After knock-down of CHRNE #1, the screen gave log2 vehicle/camptothecin viability -0.787. After knock-down of CHRNE #2 the results were log2 vehicle/camptothecin viability 0.0824. Against CHRNE #3 the deposit lists log2 vehicle/camptothecin viability -0.356.

With knock-down of CHRNE #4, the record shows log2 vehicle/camptothecin viability 0.189. After knock-down of CYP2A13 #1 the results were log2 vehicle/camptothecin viability -0.495. For CYP2A13 #2, the entry reads log2 vehicle/camptothecin viability -0.0902. After knock-down of CYP2A13 #3 the results were log2 vehicle/camptothecin viability -0.00227. Against CYP2A13 #4, the entry reads log2 vehicle/camptothecin viability -0.172.

Ordered by “log2 vehicle/camptothecin viability” (descending): 5 of the entries above
KCNIP3 #4 → log2 vehicle/camptothecin viability = 0.0206
SRP9 #4 → log2 vehicle/camptothecin viability = -0.0304
SRP9 #1 → log2 vehicle/camptothecin viability = -0.131
SRP9 #3 → log2 vehicle/camptothecin viability = -0.153
SRP9 #2 → log2 vehicle/camptothecin viability = -0.281
